Values from PubChem BioAssay AID652259 (Drosophila RNAi Screening Center, 2013).
The screen tested about 22,000 reagents; below is a random part of those with a known target gene and a result. Over the whole deposit, 233 (1.1%) got an active call. 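Light values are raw, unnormalised plate reads; the ratio scores behind the reporter calls were not deposited.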 Reagent sequences are not shown. Not stated in the record: the amount of reagent, the time to read-out, the dose of the treatment.

Assay: 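Genome-wide hunt for genes that control Wingless pathway activity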 (primary screen)
Cell system: Drosophila clone 8 imaginal disc epithelial cells
Reagent: long dsRNA against Drosophila genes
Challenge: pathway stimulated by co-transfected Wingless expression plasmid
Read-out: 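Dual luciferase reads per well after Wingless plasmid stimulation: reporter firefly light and Renilla control light; activity is firefly divided by Renilla, a ratio not deposited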
Reading the numbers: firefly reporter light: higher = more Wg reporter light, before normalisation; Renilla control light: higher = more transfected or surviving cells
Active means: 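a knock-down is a candidate when at least two out of four statistical tests show it departing from its plate mean; one test alone signals a weak candidate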
Calls: active = candidate regulator (raises or lowers reporter); inactive = not a candidate

Target gene | amplicon | firefly reporter light, replicate 1 | firefly reporter light, replicate 2 | Renilla control light, replicate 1 | Renilla control light, replicate 2 | outcome
fln (flightin) | DRSC11346 | 8459 | – | 3073 | – | inactive
CG13630 | DRSC14631 | 3050 | 5634 | 1653 | 2348 | inactive
ATPsynF (ATP synthase, subunit F) | DRSC04482 | 18421 | – | 3719 | – | inactive
Fibp | DRSC11031 | 3872 | – | 2352 | – | inactive
sgl (sugarless) | DRSC21431 | 7.24e5 | 6.56e5 | 3.35e5 | 2.89e5 | inactive
del (deadlock) | DRSC03170 | 14132 | – | 4043 | – | inactive
CG2150 | DRSC15420 | 27106 | – | 21676 | – | inactive
fz2 (frizzled 2) | DRSC09595 | 2010 | – | 1216 | – | inactive
fz2 (frizzled 2) | DRSC10087 | 9266 | – | 2118 | – | inactive
fz2 (frizzled 2) | DRSC11349 | 11916 | – | 4899 | – | inactive
CG7806 | DRSC03071 | 12772 | – | 4308 | – | inactive
tj (traffic jam) | DRSC02011 | 2524 | 4082 | 738 | 1946 | inactive
CG15347 | DRSC18031 | 23477 | – | 12886 | – | inactive
jeb (jelly belly) | DRSC06305 | 6540 | – | 2469 | – | inactive
jeb (jelly belly) | DRSC06307 | 5904 | – | 3172 | – | inactive
LRR (Leucine-rich repeat) | DRSC06444 | 2918 | 5324 | 880 | 2490 | inactive
CG7299 | DRSC03043 | 2436 | 10530 | 1385 | 4667 | inactive
CG34168 | DRSC01938 | 3290 | 7031 | 1575 | 3064 | inactive

2 entries from above, arranged by “firefly reporter light, replicate 1”, highest first.
Target gene | amplicon | firefly reporter light, replicate 1 | firefly reporter light, replicate 2 | Renilla control light, replicate 1 | Renilla control light, replicate 2 | outcome
CG15347 | DRSC18031 | 23477 | – | 12886 | – | inactive
jeb (jelly belly) | DRSC06305 | 6540 | – | 2469 | – | inactive

Further reagents follow:
Target gene | amplicon | firefly reporter light, replicate 1 | firefly reporter light, replicate 2 | Renilla control light, replicate 1 | Renilla control light, replicate 2 | outcome
lncRNA:CR32160 (long non-coding RNA:CR32160) | DRSC22904 | 4.91e5 | 6.25e5 | 2.33e5 | 2.37e5 | inactive
Dbp21E2 (DEAD box protein 21E2) | DRSC00616 | 9911 | – | 4608 | – | inactive
CG13794 | DRSC02298 | 2571 | 6610 | 672 | 2992 | inactive
Grip163 | DRSC10538 | 4989 | – | 1971 | – | inactive
CG10560 | DRSC14256 | 17475 | – | 19392 | – | inactive
tsl (torso-like) | DRSC17090 | 33040 | – | 5431 | – | inactive
Cand1 (Cullin-associated and neddylation-dissociated 1) | DRSC01992 | 7435 | – | 2099 | – | inactive
Strip (Striatin interacting protein) | DRSC08194 | 4729 | – | 1984 | – | inactive
CG15522 | DRSC15059 | 8771 | – | 3207 | – | inactive
Hyccin | DRSC06983 | 16229 | – | 4260 | – | inactive
CG15209 | DRSC19655 | 25816 | – | 11360 | – | inactive
